Test results from PMC7913900.
No constants are given. Whether binding was seen depends on the method and setting. A result given as binding can be weak or reduced; the word gives no strength. For part of these data: Sequences can lack the tags named with a protein. For part of these data: In cells and extracts the contact can be indirect.

Key:
[1] = target: T1, MBP-SnRK1A (rice (Oryza sativa L.)) (UniProt Q852Q2); test: pull-down; 15 ug SnRK1A-MBP or MBP on MBP-Tag Dextrin Resin at 4 C for 2 h, then 40 ug OsSAUR33-GST overnight at 4 C; washed with PBS + 1% Triton 100 and with PBS; western blot with anti-GST; both purified
T1 sequence: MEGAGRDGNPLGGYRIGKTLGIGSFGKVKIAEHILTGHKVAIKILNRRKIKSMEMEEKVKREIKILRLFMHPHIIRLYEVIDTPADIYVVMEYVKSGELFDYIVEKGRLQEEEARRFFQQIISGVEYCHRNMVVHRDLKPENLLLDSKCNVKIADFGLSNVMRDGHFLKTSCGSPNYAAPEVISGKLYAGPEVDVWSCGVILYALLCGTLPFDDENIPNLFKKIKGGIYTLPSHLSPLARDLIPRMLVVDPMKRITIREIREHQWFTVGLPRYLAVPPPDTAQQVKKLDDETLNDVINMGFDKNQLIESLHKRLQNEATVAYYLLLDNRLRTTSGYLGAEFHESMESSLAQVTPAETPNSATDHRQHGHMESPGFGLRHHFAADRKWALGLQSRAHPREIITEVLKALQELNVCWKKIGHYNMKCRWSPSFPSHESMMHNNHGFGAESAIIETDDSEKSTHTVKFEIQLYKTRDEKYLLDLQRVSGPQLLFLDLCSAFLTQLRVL

[2] = target: T2, nLUC-OsSnRK1A (rice (Oryza sativa L.)) (UniProt Q852Q2); test: split reporter; firefly luciferase complementation imaging; nLUC and cLUC fusions co-infiltrated into N. benthamiana leaves; 1 mM luciferin, cooled CCD imaging
T2 sequence: T1 sequence

[3] = target: T3, p2YN-OsSnRK1A (rice (Oryza sativa L.)) (UniProt Q852Q2); test: split reporter; BiFC with split YFP (p2YN, p2YC) co-expressed in N. benthamiana leaves; confocal microscopy after two days
T3 sequence: T1 sequence

Q: Which binding [1] does the source give for GST-OsSAUR33 (rice (Oryza sativa L.)) here?
A: Its binding is “binds”.

Q: With cLUC-OsSAUR33 (rice (Oryza sativa L.)) as the substance, how does the binding [2] read?
A: The binding was “binds”.

Q: Which binding [3] does the source give for p2YC-OsSAUR33 (rice (Oryza sativa L.)) here?
A: Its binding is “binds”.
